# Results taken from patent EP0390654B1, “Aminobenzenesulfonic acid derivative” (Mitsubishi Chemical Corporation, priority 1989, dated 1990).
# At least one read-out could not be matched to a standard name with certainty.
# Test system: Papillary muscle of right ventricle
# Assay: Inhibition of the cardiotonic activity of isoproterenol (developed tension) in isolated papillary muscle, as index of inhibiting Ca²⁺ overload into cells
# Parameters: species or system male Hartley-strain guinea-pigs
# Settings: inhibition of developed tension increased by isoproterenol
# Protocol: For evaluation of the extent of inhibiting Ca²⁺ overload into cells, which is the pharmacological activity of the compound of the present invention, inhibition of the cardiotonic activity of isoproterenol by the compounds of the present invention was measured.
# That is to say, since isoproterenol has been known to cause Ca²⁺ overload by excessive Ca²⁺ influx into cardiac muscle cells (Fleckenstein A., Janke J., Doring H., Leder O.; Recent advances in Studies on cardiac structure and metabolism, Myocardial Biology, Vol. 4, pp. 563 - 580 (1974)), the compound which inhibits the activity of isoproterenol can inhibit Ca²⁺ overload into cells.
# Papillary muscle of right ventricle isolated from male Hartley-strain guinea-pigs (body weight: 250 to 350 g) was suspended in an organ bath filled with a nutrient solution (Krebs-Henseleit solution). The temperature of the nutrient solution was maintained at 32 °C, and a gas mixture of 95 % oxygen and 5 % carbon dioxide was aerated. The papillary muscle was applied with a resting tension of about 0.5 g, and stimulated with platinum electrodes by an electric pulse wave of a duration of 1 msec, a frequency of 1 Hz and a voltage higher by 15 % than the threshold value. The developed tension of the papillary muscle was measured through a tension transducer and recorded with a polygraph. After the specimen was stabilized for about 90 minutes, isoproterenol ([…]) was added into the organ bath so that developed tension could be increased by 100 % or more, and at the point when the maximum reaction was obtained, the compounds of the present invention were added into the organ bath, and % inhibition of the developed tension increased by isoproterenol was measured.
structure (smiles),measurement,setting,value
"CCCc1ccc(N2CCNCC2)c(S(=O)(=O)O)c1.Cl [Compound No. 110, 2-(1-piperazinyl)-5-n-propylbenzenesulfonic acid hydrochloride]",Inhibition (%),Drug concentration 10⁻³ M,42.9%
same,Inhibition (%),Drug concentration 10⁻⁴ M,18.2%
same,Inhibition (%),Drug concentration 10⁻⁵ M,12.5%
